# Paper PMC12064789
# Chains of the proteins cited; added tags and fusions are not shown.
# UniProt P67809: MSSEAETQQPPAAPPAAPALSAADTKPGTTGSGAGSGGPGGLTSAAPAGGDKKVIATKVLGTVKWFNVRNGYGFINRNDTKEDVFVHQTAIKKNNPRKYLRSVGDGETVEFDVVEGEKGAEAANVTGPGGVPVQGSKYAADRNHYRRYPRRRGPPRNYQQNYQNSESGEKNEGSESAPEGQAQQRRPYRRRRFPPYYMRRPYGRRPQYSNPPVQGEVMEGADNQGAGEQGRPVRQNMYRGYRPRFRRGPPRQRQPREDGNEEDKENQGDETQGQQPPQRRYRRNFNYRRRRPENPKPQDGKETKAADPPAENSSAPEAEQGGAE
# No constants are given. Whether binding was seen depends on the method and setting. In cells and extracts the contact can be indirect. Here binding means that the protein was enriched with, or labelled near, the bait; the list need not be complete.
# Target: T1, Cartilage Intermediate Layer Protein 1 (CILP1) (human (endogenous in HSFs)) (UniProt O75339)
# T1 sequence: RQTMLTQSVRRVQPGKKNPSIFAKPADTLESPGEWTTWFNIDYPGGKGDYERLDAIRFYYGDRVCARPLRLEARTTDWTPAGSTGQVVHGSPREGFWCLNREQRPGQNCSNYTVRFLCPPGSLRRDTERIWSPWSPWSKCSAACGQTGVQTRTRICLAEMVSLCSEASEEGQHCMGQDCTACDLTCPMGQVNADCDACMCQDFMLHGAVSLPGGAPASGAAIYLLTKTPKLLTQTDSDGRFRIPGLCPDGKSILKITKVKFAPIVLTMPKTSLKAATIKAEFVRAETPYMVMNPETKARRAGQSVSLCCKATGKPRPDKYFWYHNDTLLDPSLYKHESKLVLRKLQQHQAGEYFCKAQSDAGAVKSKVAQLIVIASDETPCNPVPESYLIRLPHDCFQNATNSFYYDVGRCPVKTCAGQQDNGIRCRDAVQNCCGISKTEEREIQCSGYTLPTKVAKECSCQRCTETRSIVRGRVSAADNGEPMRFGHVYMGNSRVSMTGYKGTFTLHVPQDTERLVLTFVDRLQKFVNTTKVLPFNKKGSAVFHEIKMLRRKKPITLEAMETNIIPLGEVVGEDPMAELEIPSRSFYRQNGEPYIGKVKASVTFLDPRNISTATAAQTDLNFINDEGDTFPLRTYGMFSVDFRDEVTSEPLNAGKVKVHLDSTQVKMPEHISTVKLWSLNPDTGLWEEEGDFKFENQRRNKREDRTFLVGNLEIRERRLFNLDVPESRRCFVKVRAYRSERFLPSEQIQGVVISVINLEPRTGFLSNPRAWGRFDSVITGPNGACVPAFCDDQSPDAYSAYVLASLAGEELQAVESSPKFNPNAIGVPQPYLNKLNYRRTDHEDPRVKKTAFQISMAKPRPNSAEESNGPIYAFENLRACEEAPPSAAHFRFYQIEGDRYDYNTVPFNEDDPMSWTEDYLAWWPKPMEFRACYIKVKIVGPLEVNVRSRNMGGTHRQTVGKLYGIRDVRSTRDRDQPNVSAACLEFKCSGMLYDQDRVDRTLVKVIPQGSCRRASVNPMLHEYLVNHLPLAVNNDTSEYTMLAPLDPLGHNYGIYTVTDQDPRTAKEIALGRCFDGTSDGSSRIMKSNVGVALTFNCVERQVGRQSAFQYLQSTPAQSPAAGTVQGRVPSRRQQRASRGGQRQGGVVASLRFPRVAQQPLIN
# Assay: affinity purification with mass spectrometry; 5 ug CILP1 antibody or IgG incubated overnight with about 1000 ug total protein of HSFs, Protein A/G PLUS-Agarose for 4 h, SDS-PAGE, nano-HPLC-MS/MS; called 'pull-down-MS' in the results
substance,measurement,value
Y-box-binding protein 1 (YBX1) (from UniProt P67809 1-324),binding,binds
